Measurements published in US6723321B2 (priority 1998, dated 2004).
At least one structure is not confirmed: it was looked up by name or label, or the drawing left a doubt.

By UniProt entry, the sequences of proteins in these tests, tags left out. Where a name states a change or a piece, a line headed by the entry shows the natural chain unless it says otherwise.
UniProt P54291: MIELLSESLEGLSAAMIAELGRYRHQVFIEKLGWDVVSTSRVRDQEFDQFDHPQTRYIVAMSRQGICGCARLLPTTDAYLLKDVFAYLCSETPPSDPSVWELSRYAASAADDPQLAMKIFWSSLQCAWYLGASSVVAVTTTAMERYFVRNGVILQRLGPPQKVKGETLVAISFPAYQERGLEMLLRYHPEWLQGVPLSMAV

Target: RhlI (Pseudomonas aeruginosa, UniProt P54291)
Format: biochemical
Conditions: potential acyl group substrates; 61 μM SAM as co-substrate

CCCC(=O)O [butyrate]
Activity in butyryl HSL bioassay: did not have activity
